# Literature values in patent US12115147B2, “Formulations and methods related to eye irritation” (Lebrun Labs LLC, priority 2020, dated 2024).
# Tested on: rabbit eye
# Details: cited from earlier work
compound,measurement,value
CC(C)(C)c1ccc(O)cc1 [p-Tert-butylphenol],In vivo GHS,1 (key: NC (not classified as an irritant); 2A (reversal by 7 days); 2B (reversal by 14 days); 1 (no reversal by 21 days))
